# Laboratory results taken from patent US6365341B1, “Stabilization of highly sensitive nucleic acid stains in aqueous solutions” (priority 2000, dated 2002).
# System: DNA
# Experiment: Quality of DNA resolution in fresh prestained agarose gels
# Details: 1% agarose, 1xTAPS, 1xGelStar
compound,measurement,setting,value
CCCCCCCCCCCC[N+](C)(C)C.[Br-] [Dodecyltrimethylammonium bromide],Resolution when fresh,additive 28 mM,Poor
CCCCCCCCCCCCCCCC[N+](C)(C)C.[Br-] [Hexadecyltrimethylammonium bromide],Resolution when fresh,additive 2 mM,Poor
"[Na+].[OH-] [Sodium hydroxide (NaOH), Sodium hydroxide]",Resolution when fresh,additive titrated the buffer to pH 8.2,Fair
"CCCCC[N+](CCCCC)(CCCCC)CCCCC.[OH-] [TPAOH, Tetrapentylammonium hydroxide]",Resolution when fresh,additive 7.3 mM,Fair
same,Resolution when fresh,additive 14.6 mM,Good
"CCCC[N+](CCCC)(CCCC)CCCC.[OH-] [Tetrabutylammonium hydroxide (TBAOH), Tetrabutylammonium hydroxide]",Resolution when fresh,additive 14.6 mM,Fair
Tween-20,Resolution when fresh,additive 0.1% (v/v),Fair
